Values of other authors as cited in patent US7588892B2, “Reagent sets and gene signatures for renal tubule injury” (Entelos, Inc., priority 2004, dated 2009).

Tested on: renal tubules
Details: rats, daily dose, route and vehicle of Table 2, day 5/7; absence of nephrotoxicity asserted from PDR and published literature; no histological injury on day 5/7; cited from earlier work

In the case of `CCC[C@@H]1C[C@@H](C(=O)N[C@@H]([C@H]2O[C@H](SC)[C@H](O)[C@@H](O)[C@H]2O)[C@H](C)Cl)N(C)C1` [CLINDAMYCIN], the “Class (nephrotoxic / non-nephrotoxic training label)” value is listed as “Non-nephrotoxic”.
